No constants are given. Whether binding was seen depends on the method and setting. Some results given as binding are weak or reduced against the parent protein; the word gives no strength. For some assays here: Tags and fused reporters may be left off the sequences shown.
Key:
[1] = target: aspartylglucosaminidase (AGA), endogenous in PC12 cells (rat (endogenous in PC12)) (UniProt P30919); experiment: SEC; solubilised and filtrated 10 000 g pellet of PC12 postnuclear supernatant; Superdex 75 column in PBS at room temperature, 0.25 ml/min (the results name Superose 6HR); PPT1 and AGA enzyme activities measured in the fractions
[2] = target: T1, recombinant PPT1 purified from stably transfected CHO cells, P50897; experiment: SPR; Biacore 2000; purified PPT1 amine-coupled to the chip in a saturating amount; varying concentrations of PPT1 as analyte in Hepes buffered saline, pH 5 and pH 7.4; empty flow cell as control; both purified; conditions: remark: other sources report otherwise
T1 chain: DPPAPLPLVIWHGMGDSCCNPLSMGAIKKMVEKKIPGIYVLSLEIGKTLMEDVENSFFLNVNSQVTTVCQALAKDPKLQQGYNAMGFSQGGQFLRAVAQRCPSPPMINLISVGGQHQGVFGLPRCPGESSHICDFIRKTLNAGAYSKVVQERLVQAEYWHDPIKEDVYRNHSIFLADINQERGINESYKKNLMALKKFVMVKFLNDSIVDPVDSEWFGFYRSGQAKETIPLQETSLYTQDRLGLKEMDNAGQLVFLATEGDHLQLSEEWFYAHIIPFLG

B1: aspartylglucosaminidase (AGA), endogenous in PC12 cells (enzyme, UniProt P30919 24-345)
chain: SNPLPLVVNTWPFKNATEAAWWTLVSGGSALDAVEKGCAMCEKEQCGGTVGFGGSPDEVGETTLDAMIMDGTAMDVGAVGGLRRIKNAIGVARKVLEHTTHTLLVGDSATKFAVSMGFTSEDLSTNTSRALHSDWLSRNCQPNYWRNVIPDPSKYCGPYKPPDFLEQNNRAHKEVDIHSHDTIGMVVIHKTGHTAAGTSTNGLKFKIPGRVGDSPIPGAGAYADDMAGAAAATGDGDTLLRFLPSYQAVEYMRGGDDPARACQKVISRIQKYYPKFFGAVICANVTGSYGAACNRLPTFTQFSFMVYNSLHNQAIEEKVDCM
- binding [1]: binds

B2: recombinant PPT1 purified from stably transfected CHO cells, P50897 28-306 (enzyme)
chain: T1 chain
- binding [2]: no binding

Source: publication PMC1906764
